The text below walks through data of publication PMC11042535.

Protein sequences, listed by entry. Tags and fused reporters are not part of them.
UniProt P52630: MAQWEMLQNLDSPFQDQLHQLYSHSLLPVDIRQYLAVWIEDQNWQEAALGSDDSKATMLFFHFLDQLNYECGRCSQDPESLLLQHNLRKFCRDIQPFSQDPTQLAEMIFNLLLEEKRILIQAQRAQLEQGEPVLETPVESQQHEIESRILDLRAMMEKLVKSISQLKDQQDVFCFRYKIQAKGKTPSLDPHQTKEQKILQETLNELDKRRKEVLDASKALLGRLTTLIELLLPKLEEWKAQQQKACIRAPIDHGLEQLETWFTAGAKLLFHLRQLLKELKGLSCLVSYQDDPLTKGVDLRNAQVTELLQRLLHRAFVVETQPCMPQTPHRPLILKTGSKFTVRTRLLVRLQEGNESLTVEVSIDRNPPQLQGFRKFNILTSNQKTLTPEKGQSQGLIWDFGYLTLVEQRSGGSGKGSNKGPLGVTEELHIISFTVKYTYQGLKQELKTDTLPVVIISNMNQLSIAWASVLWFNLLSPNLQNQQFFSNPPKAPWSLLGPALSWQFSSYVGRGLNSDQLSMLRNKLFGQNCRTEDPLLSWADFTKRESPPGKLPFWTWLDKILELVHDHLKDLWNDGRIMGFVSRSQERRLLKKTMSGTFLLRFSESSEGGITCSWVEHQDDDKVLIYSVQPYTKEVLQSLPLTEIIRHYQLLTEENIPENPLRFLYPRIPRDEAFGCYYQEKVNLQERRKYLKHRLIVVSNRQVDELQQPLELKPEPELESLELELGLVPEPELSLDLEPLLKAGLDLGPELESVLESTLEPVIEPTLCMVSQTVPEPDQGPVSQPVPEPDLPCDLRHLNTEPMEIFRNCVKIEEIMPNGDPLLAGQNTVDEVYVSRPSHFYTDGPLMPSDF

The target of this assay is T1, nuclear factor kappa B subunit 2 (NFKB2) (human (endogenous in CRC tissues)) (UniProt Q00653).
T1 sequence: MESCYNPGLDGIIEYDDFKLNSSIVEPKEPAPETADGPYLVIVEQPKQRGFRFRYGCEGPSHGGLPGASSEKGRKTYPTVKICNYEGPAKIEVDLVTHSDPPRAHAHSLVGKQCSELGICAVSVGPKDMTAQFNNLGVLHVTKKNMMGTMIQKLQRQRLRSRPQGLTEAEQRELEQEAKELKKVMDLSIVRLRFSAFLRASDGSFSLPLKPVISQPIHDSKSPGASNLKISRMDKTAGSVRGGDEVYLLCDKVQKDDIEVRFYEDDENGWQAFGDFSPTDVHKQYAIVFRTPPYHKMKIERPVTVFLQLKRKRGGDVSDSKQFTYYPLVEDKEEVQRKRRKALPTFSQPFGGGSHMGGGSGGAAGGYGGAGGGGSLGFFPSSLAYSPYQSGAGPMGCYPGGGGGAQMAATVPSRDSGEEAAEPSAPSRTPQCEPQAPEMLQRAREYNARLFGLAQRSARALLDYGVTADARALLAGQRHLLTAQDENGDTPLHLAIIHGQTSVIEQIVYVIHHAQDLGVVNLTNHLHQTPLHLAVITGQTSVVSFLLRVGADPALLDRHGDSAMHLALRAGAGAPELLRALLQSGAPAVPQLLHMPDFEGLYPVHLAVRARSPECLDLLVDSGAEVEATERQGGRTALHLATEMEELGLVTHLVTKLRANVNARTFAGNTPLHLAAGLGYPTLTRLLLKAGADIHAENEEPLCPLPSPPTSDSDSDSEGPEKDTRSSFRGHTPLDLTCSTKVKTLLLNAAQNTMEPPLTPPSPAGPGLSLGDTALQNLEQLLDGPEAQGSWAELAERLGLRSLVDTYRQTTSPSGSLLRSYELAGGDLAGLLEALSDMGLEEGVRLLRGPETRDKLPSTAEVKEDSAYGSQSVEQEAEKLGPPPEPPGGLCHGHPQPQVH
Kind of assay: affinity purification with mass spectrometry; immunoprecipitation of NFKB2 from CRC tissues followed by mass spectrometry.

Results are given in words; binding and its absence hold for the method and conditions named. In cells and extracts the contact can be indirect. Here binding means that the protein was enriched with, or labelled near, the bait; the list need not be complete.

With “signal transducer and activator of transcription 2 (STAT2) (from UniProt P52630 1-851)”, the binding entry is reported as “binds”.
